These are yes or no findings as the source states them, for the method shown. Binding seen in cells or lysates may run through a third protein. Some results given as binding are weak or reduced against the parent protein; the word gives no strength.
How the values were obtained:
[1] = molecular target: β1-integrin (rat (endogenous in primary ATII cells of Sprague-Dawley rats)) (UniProt P49134); assay: co-IP; endogenous proteins in primary rat ATII cell lysate (150 mM NaCl, 50 mM Tris-HCl pH 7.5, 1 % Nonidet P40, 0.5 % sodium deoxycholate); IP with anti-KCa3.1 or anti-β1-integrin antibody and protein A-agarose, overnight at 4 °C; washes up to 500 mM NaCl; immunoblot of the other protein; controls without lysate or without antibody
[2] = molecular target: KCa3.1 channel (rat (endogenous in primary ATII cells of Sprague-Dawley rats)) (UniProt Q9QYW1); assay: as above

By UniProt entry, the sequences of proteins in these tests, tags left out. Residues count along the entry.
UniProt P49134, residues 21-799: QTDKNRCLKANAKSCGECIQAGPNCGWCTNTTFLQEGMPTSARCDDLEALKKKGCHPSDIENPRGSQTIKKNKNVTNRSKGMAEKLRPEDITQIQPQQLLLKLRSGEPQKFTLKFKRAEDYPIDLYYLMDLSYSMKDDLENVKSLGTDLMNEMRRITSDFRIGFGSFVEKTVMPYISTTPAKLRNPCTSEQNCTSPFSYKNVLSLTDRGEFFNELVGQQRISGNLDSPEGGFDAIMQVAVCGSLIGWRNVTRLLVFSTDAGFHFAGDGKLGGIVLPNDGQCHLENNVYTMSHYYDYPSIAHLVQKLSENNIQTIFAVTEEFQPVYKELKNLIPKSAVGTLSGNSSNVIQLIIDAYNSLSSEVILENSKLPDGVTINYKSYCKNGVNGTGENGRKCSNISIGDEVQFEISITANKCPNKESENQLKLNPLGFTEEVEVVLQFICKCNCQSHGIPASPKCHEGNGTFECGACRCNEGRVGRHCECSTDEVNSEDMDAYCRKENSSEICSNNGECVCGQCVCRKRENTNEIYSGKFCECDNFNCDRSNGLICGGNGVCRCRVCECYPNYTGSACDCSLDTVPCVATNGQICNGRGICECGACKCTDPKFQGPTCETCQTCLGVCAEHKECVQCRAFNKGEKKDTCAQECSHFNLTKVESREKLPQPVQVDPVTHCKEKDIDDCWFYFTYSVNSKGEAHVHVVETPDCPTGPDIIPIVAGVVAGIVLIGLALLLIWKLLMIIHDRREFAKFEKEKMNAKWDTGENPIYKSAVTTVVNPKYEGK
UniProt Q9QYW1: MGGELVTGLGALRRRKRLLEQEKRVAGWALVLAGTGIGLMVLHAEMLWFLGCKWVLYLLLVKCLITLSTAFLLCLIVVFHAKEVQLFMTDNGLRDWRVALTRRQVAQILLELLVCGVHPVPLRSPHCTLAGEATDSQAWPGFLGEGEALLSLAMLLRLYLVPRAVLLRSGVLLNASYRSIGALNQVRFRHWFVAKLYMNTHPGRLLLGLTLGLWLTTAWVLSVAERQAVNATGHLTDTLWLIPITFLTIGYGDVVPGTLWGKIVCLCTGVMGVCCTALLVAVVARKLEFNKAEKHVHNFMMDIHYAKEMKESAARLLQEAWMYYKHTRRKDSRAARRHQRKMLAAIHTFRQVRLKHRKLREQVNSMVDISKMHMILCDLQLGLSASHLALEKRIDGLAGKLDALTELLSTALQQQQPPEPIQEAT

| Substance | binding [1] | binding [2] |
| --- | --- | --- |
| KCa3.1 channel (from UniProt Q9QYW1 1-425) | binds | – |
| β1-integrin (from UniProt P49134 21-799) (receptor) | – | binds |

Reference: paper PMC4558634
